This test addresses T1, human TMEM39A second cytoplasmic loop domain (a.a. 337-420) (human) (UniProt Q9NV64).
T1 sequence: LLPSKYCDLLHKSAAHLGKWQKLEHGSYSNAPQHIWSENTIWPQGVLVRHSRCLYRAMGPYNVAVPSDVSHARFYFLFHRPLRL
Kind of test: two-hybrid.

Protein sequences, listed by entry. Tags and fused reporters are not part of them.
UniProt O00399: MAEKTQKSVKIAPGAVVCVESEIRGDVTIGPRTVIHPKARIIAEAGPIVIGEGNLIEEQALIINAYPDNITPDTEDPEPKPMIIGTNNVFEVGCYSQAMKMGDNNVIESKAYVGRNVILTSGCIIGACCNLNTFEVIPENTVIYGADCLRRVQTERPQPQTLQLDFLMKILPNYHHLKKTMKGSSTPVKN

Results are given in words; binding and its absence hold for the method and conditions named. Some binding calls cover weakened binding; strength is not graded here.

Take “Dctn6 full length (a.a. 1-190) (from UniProt O00399 1-190)”: the binding entry is “binds”.

The values are drawn from publication doi:10.1101/2020.08.17.253450.
